{"source": "PubChem BioAssay AID504793 | Drosophila RNAi Screening Center | 2011", "assay": "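Genes required for cells to halt at G2/M after double-strand DNA breaks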 (primary screen)", "cell system": "Drosophila S2R+ cells", "knock-down reagent": "long dsRNA against Drosophila genes, about 0.25 µg dsRNA per well", "duration": "4 days of dsRNA, then 4 hours of drug before read-out", "conditions": "doxorubicin 0.5 µM for 4 hours to cause double-strand breaks, in cells also given a low, harmless dose of dsRNA against nbs to sensitise the assay", "detection": "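Mitotic index as the number of phospho-histone H3-positive cells in each well following doxorubicin, given as raw counts without normalisation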", "direction": "mitotic cells: higher = more cells in mitosis, weaker G2 arrest", "hit rule": "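Genes are called active only when high mitotic counts were reproduced with independent dsRNAs and mitosis was checked for delay without damage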", "meaning of the calls": "active = confirmed in follow-up tests; inactive = not confirmed", "note": "In all, the deposit lists about 23,000 reagents; below is an unselected part of those that have a named target and a result. Of all reagents, 62 (0.27%) are marked active. 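Calls come from follow-up tests whose scores are not deposited, so confirmed genes may have low counts here; counts are not normalised per plate.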 Raw values vary from plate to plate and are shown uncorrected. A plus sign joins genes that one reagent is predicted to hit."}
{"Target gene": "CG1827", "amplicon": "DRSC06719", "mitotic cells, replicate 1": 2, "Outcome": "inactive"}
{"Target gene": "Mal-A2 (Maltase A2)", "amplicon": "DRSC07460", "mitotic cells, replicate 1": 15, "Outcome": "inactive"}
{"Target gene": "Dab (Disabled)", "amplicon": "DRSC11140", "mitotic cells, replicate 1": 12, "Outcome": "inactive"}
{"Target gene": "CG14207", "amplicon": "DRSC19562", "Outcome": "inactive"}
{"Target gene": "CG14207", "amplicon": "DRSC19563", "mitotic cells, replicate 1": 3, "Outcome": "inactive"}
{"Target gene": "sand (sandman)", "amplicon": "DRSC07245", "mitotic cells, replicate 1": 6, "Outcome": "inactive"}
{"Target gene": "TwdlV (TweedleV)", "amplicon": "DRSC24972", "mitotic cells, replicate 1": 8, "Outcome": "inactive"}
{"Target gene": "Tango4 (Transport and Golgi organization 4)", "amplicon": "DRSC19786", "mitotic cells, replicate 1": 5, "Outcome": "inactive"}
{"Target gene": "Tango4 (Transport and Golgi organization 4)", "amplicon": "DRSC23475", "mitotic cells, replicate 1": 3, "Outcome": "inactive"}
{"Target gene": "CG17085 (retired record)", "amplicon": "DRSC02565", "mitotic cells, replicate 1": 1, "Outcome": "inactive"}
{"Target gene": "CG17085 (retired record)", "amplicon": "DRSC02566", "mitotic cells, replicate 1": 4, "Outcome": "inactive"}
{"Target gene": "CG17085 (retired record)", "amplicon": "DRSC30095", "mitotic cells, replicate 1": 5, "Outcome": "inactive"}
{"Target gene": "atos (atossa)", "amplicon": "DRSC07318", "mitotic cells, replicate 1": 6, "Outcome": "inactive"}
{"Target gene": "GCS2alpha (Glucosidase 2 alpha subunit)", "amplicon": "DRSC21036", "mitotic cells, replicate 1": 12, "Outcome": "inactive"}
{"Target gene": "Pgant8 (Polypeptide N-Acetylgalactosaminyltransferase 8)", "amplicon": "DRSC10801", "mitotic cells, replicate 1": 6, "Outcome": "inactive"}
{"Target gene": "Pgant8 (Polypeptide N-Acetylgalactosaminyltransferase 8)", "amplicon": "DRSC26909", "mitotic cells, replicate 1": 13, "Outcome": "inactive"}
{"Target gene": "Gpxl (Glutathione peroxidase-like)", "amplicon": "DRSC06538", "mitotic cells, replicate 1": 12, "Outcome": "inactive"}
{"Target gene": "dao (down and out)", "amplicon": "DRSC01960", "mitotic cells, replicate 1": 7, "Outcome": "inactive"}
{"Target gene": "dao (down and out)", "amplicon": "DRSC26014", "mitotic cells, replicate 1": 5, "Outcome": "inactive"}
{"Target gene": "Eno (Enolase)", "amplicon": "DRSC00750", "mitotic cells, replicate 1": 5, "Outcome": "inactive"}
{"Target gene": "MESR6 (Misexpression suppressor of ras 6)", "amplicon": "DRSC10720", "mitotic cells, replicate 1": 1, "Outcome": "inactive"}
{"Target gene": "MESR6 (Misexpression suppressor of ras 6)", "amplicon": "DRSC28344", "mitotic cells, replicate 1": 9, "Outcome": "inactive"}
{"Target gene": "Phs (Phaser)", "amplicon": "DRSC10827", "mitotic cells, replicate 1": 4, "Outcome": "inactive"}
{"Target gene": "Phs (Phaser)", "amplicon": "DRSC29714", "mitotic cells, replicate 1": 7, "Outcome": "inactive"}
{"Target gene": "CG42827 + CG42828", "amplicon": "DRSC16116", "mitotic cells, replicate 1": 12, "mitotic cells, replicate 2": 9, "Outcome": "inactive"}
{"Target gene": "pio (piopio)", "amplicon": "DRSC04386", "mitotic cells, replicate 1": 3, "Outcome": "inactive"}
{"Target gene": "pio (piopio)", "amplicon": "DRSC29371", "mitotic cells, replicate 1": 1, "Outcome": "inactive"}
{"Target gene": "l(3)87Df (lethal (3) 87Df)", "amplicon": "DRSC16982", "mitotic cells, replicate 1": 4, "Outcome": "inactive"}
{"Target gene": "SP1029", "amplicon": "DRSC16848", "mitotic cells, replicate 1": 18, "Outcome": "inactive"}
{"Target gene": "SP1029", "amplicon": "DRSC25584", "mitotic cells, replicate 1": 5, "Outcome": "inactive"}
{"Target gene": "CCKLR-17D3 (Cholecystokinin-like receptor at 17D3)", "amplicon": "DRSC20015", "mitotic cells, replicate 1": 36, "Outcome": "inactive"}
{"Target gene": "CCKLR-17D3 (Cholecystokinin-like receptor at 17D3)", "amplicon": "DRSC20017", "mitotic cells, replicate 1": 3, "Outcome": "inactive"}
{"Target gene": "CCKLR-17D3 (Cholecystokinin-like receptor at 17D3)", "amplicon": "DRSC23715", "mitotic cells, replicate 1": 10, "Outcome": "inactive"}
{"Target gene": "CG14929 + CG4970 + CG14930", "amplicon": "DRSC02412", "mitotic cells, replicate 1": 5, "Outcome": "inactive"}

5 entries from above, showing only “mitotic cells, replicate 1”:
MESR6 (Misexpression suppressor of ras 6) [DRSC28344]	9
Phs (Phaser) [DRSC10827]	4
Phs (Phaser) [DRSC29714]	7
CG42827 + CG42828 [DRSC16116]	12
pio (piopio) [DRSC04386]	3
